For part of these data: The comparison behind a weaker result is the experiment's own reference, which may not be listed here. For part of these data: Construct, isoform or probe ends are uncertain for at least one entry. For part of these data: Results from cells or extracts need not show a direct contact.
What was measured:
[1] = tested on: YB-1 + Actin; experiment: pull-down; settings: band g; 3' biotin; pull-down: RNA on streptavidin beads blocked in 10 mM Tris-HCl pH 7.5, 100 mM KCl, 0.1 mM EDTA, 1 mM DTT, 0.01% Triton X-100, BSA, tRNA; extract 1 h at 30 °C; protein in an extract; label: biotin
[2] = target: YB-1 (Homo sapiens) (UniProt P67809); experiment: pull-down; settings: 3' biotin; pull-down: RNA on streptavidin beads blocked in 10 mM Tris-HCl pH 7.5, 100 mM KCl, 0.1 mM EDTA, 1 mM DTT, 0.01% Triton X-100, BSA, tRNA; extract 1 h at 30 °C; protein in an extract; label: biotin
[3] = target: Δnucleolin del1-283 (Homo sapiens) (UniProt P19338); experiment: SPR; settings: similar to ARPC2 mut; 3' biotin; SPR: 25 °C, 1:10 mixture of binding buffer (10 mM Tris-HCl pH 7.5, 150 mM KCl) and HBS-EP (10 mM HEPES pH 7.4, 150 mM NaCl, 3 mM EDTA, 0.005% P20), protein immobilized; recombinant protein; residues 284-710; protein details: N-terminal His-tag (pET28a); label: biotin

By UniProt entry, the sequences of proteins in these tests, tags left out. Where a name states a change or a piece, a line headed by the entry shows the natural chain unless it says otherwise. Residues count along the entry.
UniProt P67809: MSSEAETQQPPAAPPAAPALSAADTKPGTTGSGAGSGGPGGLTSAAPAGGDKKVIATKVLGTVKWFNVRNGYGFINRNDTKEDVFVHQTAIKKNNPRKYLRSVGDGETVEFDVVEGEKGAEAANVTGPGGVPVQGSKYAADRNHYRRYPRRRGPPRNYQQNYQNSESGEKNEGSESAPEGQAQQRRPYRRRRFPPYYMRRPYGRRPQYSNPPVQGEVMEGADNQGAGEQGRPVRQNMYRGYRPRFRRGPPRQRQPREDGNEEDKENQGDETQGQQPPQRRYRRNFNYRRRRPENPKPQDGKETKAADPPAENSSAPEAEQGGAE
UniProt P19338, 284-710, stated change not applied: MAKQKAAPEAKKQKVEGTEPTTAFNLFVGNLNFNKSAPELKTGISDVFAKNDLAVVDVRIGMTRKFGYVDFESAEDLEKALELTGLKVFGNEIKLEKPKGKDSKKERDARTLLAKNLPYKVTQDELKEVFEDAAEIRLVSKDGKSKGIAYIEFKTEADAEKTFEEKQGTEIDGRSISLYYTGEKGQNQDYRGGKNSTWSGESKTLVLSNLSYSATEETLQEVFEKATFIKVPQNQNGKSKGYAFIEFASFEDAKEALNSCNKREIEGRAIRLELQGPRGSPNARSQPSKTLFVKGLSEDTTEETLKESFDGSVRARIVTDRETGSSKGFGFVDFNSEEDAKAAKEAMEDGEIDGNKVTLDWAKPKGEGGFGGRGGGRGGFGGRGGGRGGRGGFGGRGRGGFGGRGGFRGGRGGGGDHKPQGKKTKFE

“AGCCGUAGACUGGGCGAAGACCGGGCUUGU [ARPC2-2xG]”: binds [1]; binds [2]; binds more weakly [3].

Source: article PMC4041461
